# According to publication PMC7819943, “Rice protein-binding microarrays: a tool to detect cis-acting elements near promoter regions in rice”:
# The other results are listed elsewhere or left out.
# Biological target: T1, OsSMF1 (Oryza sativa, UniProt Q6ZLB0 1-436)
# T1 sequence: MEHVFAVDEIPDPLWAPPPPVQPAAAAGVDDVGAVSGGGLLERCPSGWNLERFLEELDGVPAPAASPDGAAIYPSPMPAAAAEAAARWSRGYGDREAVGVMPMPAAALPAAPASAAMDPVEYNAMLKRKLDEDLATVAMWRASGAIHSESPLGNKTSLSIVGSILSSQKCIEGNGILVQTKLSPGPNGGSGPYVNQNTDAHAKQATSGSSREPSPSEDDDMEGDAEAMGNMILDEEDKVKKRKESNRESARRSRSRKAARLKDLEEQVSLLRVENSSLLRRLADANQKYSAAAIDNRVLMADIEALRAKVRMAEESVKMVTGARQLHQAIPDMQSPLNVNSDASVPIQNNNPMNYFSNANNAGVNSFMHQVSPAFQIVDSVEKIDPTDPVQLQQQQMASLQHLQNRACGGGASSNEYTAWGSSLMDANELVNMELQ
# Assay: protein-binding microarray (RPBM); PBS, 2% BSA, 51.3 ng/ul salmon testes DNA, 50 uM zinc acetate, 200 nM TF, 25 C, 1 h; high values mean tight binding
# Details: protein: recombinant; tags: N-terminal polyhistidine and DsRed monomer fusion (pET32a); chain copies: 2; label: CyDye5-dUTP incorporated in the synthesized complementary strand; 3' TTTTT single-stranded linker to array surface; dsDNA, one strand shown
# Method in brief: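 Per-feature fluorescence intensity (arbitrary units), read on an Axon 4000B scanner, is the binding signal. Transcription factors carrying an N-terminal polyhistidine tag and DsRed fusion were expressed in E. coli BL21-CodonPlus and purified on Ni–NTA. A custom Agilent array, made double-stranded by primer extension with Cy5-dUTP and blocked with 2% BSA, was incubated with 200 nM protein in PBS, 2% BSA, salmon testes DNA and 50 µM zinc acetate at 25 °C for 1 h and then washed.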
row,Sequence,binding signal
1,CGGTGTCGTCGTTCAGACGCGACACGTATAGTGAACCCTCCGGAGTCACCTAGTGCAG,3840 fluorescence intensity (a.u.)
2,GGAATCCAGTGCAACTGTGGCAGTTGGATCACCCCAGCCTCGGAGTCACCTAGTGCAG,38900 fluorescence intensity (a.u.)
3,AAGCCCTAGTCCCCGCCACGCCACCGTCCGCCGGCAACGCCGGAGTCACCTAGTGCAG,7780 fluorescence intensity (a.u.)
4,GCAATTTCTAATTGTATTATATGACAGTTTTAGTGGAAATCGGAGTCACCTAGTGCAG,28800 fluorescence intensity (a.u.)
5,GCCGATCGATCAATCGCCGCCGCCGTCTCCTCGTGTAACCCGGAGTCACCTAGTGCAG,3430 fluorescence intensity (a.u.)
6,ATATAATGTGTGTGCATCTACTTTGTGTTGCTGACTAACGCGGAGTCACCTAGTGCAG,4990 fluorescence intensity (a.u.)
7,ATATGTATGTGTTGTAAACTTTCATTGGATTTGTGAAGTTCGGAGTCACCTAGTGCAG,3200 fluorescence intensity (a.u.)
8,CTGCACCTGCTTGATCTCTTCTATGTCACTGTTCCTCTGACGGAGTCACCTAGTGCAG,3220 fluorescence intensity (a.u.)
9,ACTCGCCCCTTGCGGCATCGCCTCCTCCCCGCCACACAAACGGAGTCACCTAGTGCAG,3720 fluorescence intensity (a.u.)
10,CAAATGTGTGTCTATATATCCGATGTGACAACCAAACCTACGGAGTCACCTAGTGCAG,3320 fluorescence intensity (a.u.)
11,GCCCAATCCACGTTGCCGTCGAGGTCGATGCCGCCGCTCGCGGAGTCACCTAGTGCAG,4360 fluorescence intensity (a.u.)
12,AGAAAGCACCACGACGACAAACGGCCCCAGTGAGCGAGTGCGGAGTCACCTAGTGCAG,3520 fluorescence intensity (a.u.)
13,CCGCTTCGCTCCGTTGGAAGCTAGACTTTATACGTGTGCACGGAGTCACCTAGTGCAG,3340 fluorescence intensity (a.u.)
14,GCATGATGTATGATGAGCTCTACACGAAAGCCAAAGTGATCGGAGTCACCTAGTGCAG,3170 fluorescence intensity (a.u.)
15,GCATCTCCTTACTTGACGTAATGTCAGAGCGCTAGCAAACCGGAGTCACCTAGTGCAG,4980 fluorescence intensity (a.u.)
16,TTTAATTATATTATCACTGACATGTGGGTCCCACTATATGCGGAGTCACCTAGTGCAG,4330 fluorescence intensity (a.u.)
17,CTCTTAATCGCAGCCTTCACTTTCGTCGTGACGAGTCACGCGGAGTCACCTAGTGCAG,4540 fluorescence intensity (a.u.)
18,TAGATTACATAAAGATAGTGACTGTTGCAATGTTGTCTGTCGGAGTCACCTAGTGCAG,4230 fluorescence intensity (a.u.)
19,TCGGGCCCATAGGAGGGTCGTGGCGTGGCGTGCCCAGGTGCGGAGTCACCTAGTGCAG,4100 fluorescence intensity (a.u.)
20,GCACATCGATCGAGTCAGCTGATCACTCACACTGCGGACTCGGAGTCACCTAGTGCAG,4170 fluorescence intensity (a.u.)
21,ATTCGTTTGGTGTGGTATTATCCGTATGTGGAAGTTGTTACGGAGTCACCTAGTGCAG,3620 fluorescence intensity (a.u.)
22,TTAATCACACGTTTATGAATCACTTAATCATATTCATCATCGGAGTCACCTAGTGCAG,4020 fluorescence intensity (a.u.)
23,GCAGATCTAGCTACACTAGCCGCCCTATTTCAGGTCTCCACGGAGTCACCTAGTGCAG,3480 fluorescence intensity (a.u.)
24,TACTATTCTGTGGATGAGTCAGATGAAGATGAGGTGCCTTCGGAGTCACCTAGTGCAG,5110 fluorescence intensity (a.u.)
25,CGATAATGACACGGAATTATCTTACTAAGCCCGGATTAATCGGAGTCACCTAGTGCAG,3290 fluorescence intensity (a.u.)
26,GCACATATCAGGTATGACATCATCAATGGAAGTCCAACAGCGGAGTCACCTAGTGCAG,10700 fluorescence intensity (a.u.)
27,CAGGTGAGGAGGAAGTCGCCGCCGCGGTCCCGGTCGCGGGCGGAGTCACCTAGTGCAG,31600 fluorescence intensity (a.u.)

# A few values from the results shown.
# Under binding signal, ATTCGTTTGGTGTGGTATTATCCGTATGTGGAAGTTGTTACGGAGTCACCTAGTGCAG is listed with 3620 fluorescence intensity (a.u.)
# Under binding signal, GGAATCCAGTGCAACTGTGGCAGTTGGATCACCCCAGCCTCGGAGTCACCTAGTGCAG is listed with 38900 fluorescence intensity (a.u.)
# Under binding signal, TAGATTACATAAAGATAGTGACTGTTGCAATGTTGTCTGTCGGAGTCACCTAGTGCAG is listed with 4230 fluorescence intensity (a.u.)

# Following part:

row,Sequence,binding signal
1,TACTGCCAATTGACACGTTCCAACTCTAGCTTCTTTCCTGCGGAGTCACCTAGTGCAG,27600 fluorescence intensity (a.u.)
2,TGCAGCCCACCTATGAGTAAGCAAAAGTGTGCGGCCCTCCCGGAGTCACCTAGTGCAG,4440 fluorescence intensity (a.u.)
3,GTGCATGGCTTACGTGCGGTGCACTACCACGGCGGCAGCCCGGAGTCACCTAGTGCAG,4050 fluorescence intensity (a.u.)
4,CAGGCACGGTGGTCGGCGTCATGCGGGGCTGCTCGGCTAGCGGAGTCACCTAGTGCAG,3420 fluorescence intensity (a.u.)
5,TTTCCTTTATTAGCTCAGCAAGAGCAGCTCTAGCGTGGCACGGAGTCACCTAGTGCAG,4470 fluorescence intensity (a.u.)
6,AACTGCTATATAAATTGTTGCCACCACGCAGCGACAGGTGCGGAGTCACCTAGTGCAG,4220 fluorescence intensity (a.u.)
7,AGTTGCTGACATGTGAGCCCCACTTGCTAACTCAGCAAAGCGGAGTCACCTAGTGCAG,4650 fluorescence intensity (a.u.)
8,AGAGAGTGGCTGAGGTGAGCTGTGTAGGGTGGGGTTTCCGCGGAGTCACCTAGTGCAG,3740 fluorescence intensity (a.u.)
9,CCATATGGCCATCTATACGCTCATCCACTGGCACGTCATCCGGAGTCACCTAGTGCAG,9890 fluorescence intensity (a.u.)
10,TACCCGGGACGTGACACGTCACCATTATTCTGTTGTCAACCGGAGTCACCTAGTGCAG,13700 fluorescence intensity (a.u.)
11,AGCATCCGAATCCGGCCACCTCATCATCTCGCCTCGCTTCCGGAGTCACCTAGTGCAG,7340 fluorescence intensity (a.u.)
12,TTAATCGTCCACACGTCACTCTCCTTTGATCCGAAGCTCACGGAGTCACCTAGTGCAG,15600 fluorescence intensity (a.u.)
13,AGGGACCCAAACCGACCAGTCACCAACTCACCATCCACCCCGGAGTCACCTAGTGCAG,3850 fluorescence intensity (a.u.)
14,TAGGCTGGTGTTGATGTTCTTTGATTCGGTATAAATCAATCGGAGTCACCTAGTGCAG,3290 fluorescence intensity (a.u.)
15,CCGAATTATGGAGATCCACGGACACCCATGCTCCCACGTGCGGAGTCACCTAGTGCAG,3170 fluorescence intensity (a.u.)
16,ACTGTATACTCCCCAAATTCCGTCATGGCGATGGCACTGTCGGAGTCACCTAGTGCAG,3550 fluorescence intensity (a.u.)
17,AACAGGATCCATACTGTTTAACTACATATCTTGGAATCTACGGAGTCACCTAGTGCAG,4920 fluorescence intensity (a.u.)
18,CGGGCACCGTGATGTAATAGTAATACCACGCCGAATACACCGGAGTCACCTAGTGCAG,3150 fluorescence intensity (a.u.)
19,TTTTCCTTGTAACGAACATCTCATCATCATCATCAGCTGACGGAGTCACCTAGTGCAG,5290 fluorescence intensity (a.u.)
20,GTGGCCTGCTCCCGCGTCGCAGCCACCGCCGCCACCTCGTCGGAGTCACCTAGTGCAG,3540 fluorescence intensity (a.u.)
21,TTGTTTTGTAAAGCACGTCATCACTATTTAGGTGGAATATCGGAGTCACCTAGTGCAG,11200 fluorescence intensity (a.u.)
22,TGAGCCCATGTATCGAGAGATGATCATCATATGACGACGTCGGAGTCACCTAGTGCAG,3770 fluorescence intensity (a.u.)
23,AAGCGACGGATATCGGGAGTCGAACGTCCCTCTGACGTAGCGGAGTCACCTAGTGCAG,5310 fluorescence intensity (a.u.)
24,GCGCATGACAACCCGCGCCACGCGCACACGCACACCCACCCGGAGTCACCTAGTGCAG,4530 fluorescence intensity (a.u.)
25,ATCCCTCCCTACCCACACCTCATCAGGTATTCTGCTTTATCGGAGTCACCTAGTGCAG,3520 fluorescence intensity (a.u.)
26,CAGTTCTTAAACTTGTAAAGTTGTGTCATATACCACATTACGGAGTCACCTAGTGCAG,39600 fluorescence intensity (a.u.)
27,CCTCCTCCTCCTCCTCCACGCTTCCGCAAATTTCCGATCTCGGAGTCACCTAGTGCAG,3780 fluorescence intensity (a.u.)
